Laboratory results taken from patent publication US20260373233A1, “ISLET AMYLOID POLYPEPTIDE ISOFORMS AND PEPTIDES AND METHODS OF USE” (The United States of America, as represented by the …, priority 2022, published 2026).

Experiments:
[1] = SRM-MS (LC-MS/MS) measurement of IAPP isoform peptides in CSF; set-up: species or system human; conditions: for difference of level between MCI/AD and control CSF: p=0.6237 (pro-IAPPγ), 0.3852 (fs-IAPPγ)
[2] = SRM-MS (LC-MS/MS) measurement of IAPP isoform peptides in plasma samples; set-up: species or system human; conditions: AD vs normal control plasma; p<0.0001 (pro-IAPPβ), 0.0229 (pro-IAPPγ), 0.0224 (fs-IAPPγ)
[3] = Human IAPP ELISA of plasma samples; conditions: AD vs control plasma; t(26)=0.25, p=0.8044

**Q.** Which results are given for `CC(C)C[C@H](NC(=O)[C@@H](NC(=O)[C@H](C)NC(=O)[C@H](CC(N)=O)NC(=O)CNC(=O)[C@@H](N)CO)[C@@H](C)O)C(=O)N1CCC[C@H]1C(=O)N[C@@H](Cc1c[nH]cn1)C(=O)N[C@H](C(=O)N[C@@H](CCC(N)=O)C(=O)N[C@@H](CCCNC(=N)N)C(=O)O)C(C)C` [fs-IAPPγ] (H-SGNATLPHVQR-OH)?
**A.** CSF level, % of pro-IAPPγ ([1]; CSF): 5%; difference of level between MCI/AD and control CSF ([1]; MCI/AD vs control CSF): no significant differences; level in AD plasma samples, % of normal controls [2]: 72.6%

**Q.** With `CC[C@H](C)[C@H](NC(=O)[C@@H]1CCCN1C(=O)[C@@H](NC(=O)[C@H](CCC(N)=O)NC(=O)[C@H](CC(=O)O)NC(=O)[C@H](CC(C)C)NC(=O)[C@@H](N)CSCC(N)=O)[C@@H](C)CC)C(=O)N[C@@H](Cc1ccccc1)C(=O)N[C@H](C(=O)N[C@H](C(=O)N[C@@H](Cc1ccccc1)C(=O)N[C@@H](CCC(N)=O)C(=O)N[C@@H](CCC(=O)O)C(=O)N[C@@H](CC(N)=O)C(=O)N[C@@H](Cc1c[nH]cn1)C(=O)N[C@@H](CCC(N)=O)C(=O)N[C@H](C(=O)N[C@@H](CCC(=O)O)C(=O)N[C@@H](CCCCN)C(=O)O)C(C)C)C(C)C)[C@@H](C)O` [pro-IAPPβ] (H-C(Cam)LDQIPIFTVFQENHQVEK-OH) as the molecule, how does the “fold increase of level in MCI/AD CSF compared to controls” value ([1]; MCI/AD vs control CSF, p=0.0102) read?
**A.** The value was “about 3.4 fold”.

**Q.** What about the “level in AD plasma samples, % of normal controls” value [2] of the same molecule?
**A.** Its value is 56.5%.

**Q.** For `CC[C@H](C)[C@H](NC(=O)[C@H](Cc1c[nH]c2ccccc12)NC(=O)[C@H](CCC(=O)O)NC(=O)[C@@H](N)CCC(N)=O)C(=O)N[C@H](C(=O)N1CCC[C@H]1C(=O)N[C@H](C(=O)N[C@@H](CC(C)C)C(=O)N[C@@H](CO)C(=O)N[C@@H](CCCNC(=N)N)C(=O)O)C(C)C)[C@@H](C)CC` [pro-IAPPγ] (H-QEWIIPVLSR-OH), which “CSF level, % of pro-IAPPβ” value ([1]; CSF) is on record?
**A.** Its value is 34%.

**Q.** What about the “difference of level between MCI/AD and control CSF” value ([1]; MCI/AD vs control CSF) of the same molecule?
**A.** The value was “no significant differences”.

**Q.** And the “level in AD plasma samples, % of normal controls” value [2]?
**A.** The value was 82.0%.

**Q.** With “IAPP: plasma IAPP quantified by Human IAPP ELISA, which detects IAPP37 only (KCNTATCATQRLANFLVHSSNNFGAILSSTNVGSNTY; Islet amyloid polypeptide; UniProt P10997 34-70, looked up)” as the molecule, how does the “difference of plasma IAPP between AD and controls by IAPP ELISA” value [3] read?
**A.** Its value is “no significant difference”.

Peptide text beside a SMILES is read from it. * marks the point of attachment. Cam = NC(=O)C*
